Source: PubChem BioAssay AID504808 (Drosophila RNAi Screening Center, 2011)
The screen tested about 21,000 reagents; shown is a random part of those with a known target gene and a result. Over the whole deposit, 18 (0.084%) were called active. 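Raw counts without plate normalisation, one of two replicates; the ratio scores behind the calls were not deposited.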 Entries without a mark were called inactive. The numbers tell different reagents against one gene apart. Names joined by + are all predicted targets of the reagent. Not stated in the record: the amount of reagent, the time to read-out.

Aim: 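Chromatin factors that keep E2F targets switched off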 (primary screen)
Cells: Drosophila S2 cells
Reagent: long dsRNA against Drosophila genes
Measured: 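Firefly luciferase driven by E2F sites, normalised to Renilla luciferase on the same minimal promoter, measured by plate reader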
Direction: E2F firefly: higher = more E2F reporter activity; Renilla normaliser: higher = more normaliser reporter signal
Hit rule: 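Called active if the normalised E2F reporter went up by over 50%; the cutoff is arbitrary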

no.	gene	dsRNA no.	E2F firefly, rep 1	Renilla normaliser, rep 1
1	CG42588	1	1.42e5	7637
2	Prm (Paramyosin)	1	1.26e5	4730
3	Prm (Paramyosin)	2	1.24e5	4678
4	Prm (Paramyosin)	3	65104	3500
5	CG8441	1	85553	3806
6	AttC (Attacin-C)	1	87544	3973
7	Hsp70Aa + Hsp70Ab	1	1.13e5	6452
8	CG15773	1	73961	4829
9	fj (four-jointed)	1	1.62e5	5649
10	CG7379	1	67297	3020
11	CG13694	1	1.54e5	5845
12	Prosbeta1 (Proteasome beta1 subunit)	1	52874	3272
13	GatC + PolG2	1	79652	3390
14	CG9330	1	1.43e5	6553
15	Zasp52 (Z band alternatively spliced PDZ-motif protein 52)	1	1.50e5	4840
16	Zasp52 (Z band alternatively spliced PDZ-motif protein 52)	2	1.24e5	4396

Targets listed so far whose target name starts with P or p (4):
gene	dsRNA no.	E2F firefly, rep 1	Renilla normaliser, rep 1
Prm (Paramyosin)	1	1.26e5	4730
Prm (Paramyosin)	2	1.24e5	4678
Prm (Paramyosin)	3	65104	3500
Prosbeta1 (Proteasome beta1 subunit)	1	52874	3272

More reagents:
no.	gene	dsRNA no.	E2F firefly, rep 1	Renilla normaliser, rep 1
17	CG17508	1	1.01e5	4096
18	RhoU	1	83974	2865
19	RhoU	2	1.17e5	2620
20	RhoU	3	68489	4624
21	CG31102	1	1.13e5	6122
22	ple (pale)	1	85925	3992
23	Atf-2 (Activating transcription factor-2)	1	83739	3247
24	Atf-2 (Activating transcription factor-2)	2	52143	2503
25	CG9394	1	1.01e5	4003
26	Ccz1 (Caffeine, calcium, zinc sensitivity 1)	1	1.06e5	4295
27	Jhbp6 (Juvenile hormone binding protein 6)	1	1.47e5	7758
28	Cpr76Bc (Cuticular protein 76Bc)	1	1.35e5	6974
29	Vha16-2 (Vacuolar H[+] ATPase 16kD subunit 2)	1	1.25e5	6859
30	Pcl (Polycomblike)	1	62622	3189
31	CG31262	1	79192	2330
32	CG3308	1	69824	3326
33	CG7573	1	1.26e5	7305
34	CG3216	1	1.03e5	5080
